# Data from PubChem BioAssay AID1347076 (National Center for Advancing Translational Sciences (NCATS), 2019).
# Values joined by “and” are separate entries in the source; they are usually repeats but may differ in a detail not shown here. Identical values can stand only once. The whole screen tested about 400,000 compounds, of which about 13,000 (3.2%) were called active. Inconclusive means that the source gave no clear call. Such entries were picked first, then a sample of the others. Calls come from the whole dose curve; as a rule, active = well fitted cell-killing curve with a large enough effect; inconclusive = small, poorly fitted or top-dose-only effect, or effect the other way; inactive = flat fitted curve, though single readings scatter. Potencies beside an inconclusive call are fits to weak or partial responses and may not hold up.
# Experiment: qHTS assay for MDR1-selective chemotherapeutics: Primary screen using the drug-selected MDR subline cells KB-V1; note: nearly all actives have a fitted effect of over 60% in size
# Settings: KB-V1 MDR cells viability, CellTiter-Glo, 72 h; series mostly up to 46.1 µM
# Outline: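 Cytotoxicity via CellTiter-Glo luminescence after 72 h compound exposure at 37 degrees C. Cells: drug-selected KB-V1 line, DMEM phenol-red free plus 10% FBS. Compounds tested at multiple concentrations; normalized data fitted to concentration-effect curves.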
# Potency is the fitted concentration of half-maximal effect.
row,Structure (SMILES),Potency
1,COc1ccc(Nc2nc(NCc3ccco3)nc(N3CCOCC3)n2)cc1,inactive
2,O=C1CCCCN1CC(=O)N1CCCC(Nc2ccc(F)cc2)C1 (configuration not stated),"inconclusive: 16.4 µM [rising, single point]"
3,CCC(=O)N1CCN(c2ccccc2NC(=S)NC(=O)c2ccco2)CC1,"inconclusive: 14.6 µM [cytotoxic, partial curve]"
4,COc1cc(CNc2ccc(N3CCCC3)cc2)cc(Cl)c1OC,"inconclusive: 18.4 µM [cytotoxic, single point]"
5,CC(C)(C)NC(=O)C(c1ccncc1)n1c(=O)c(-c2cc3ccccc3[nH]2)nc2ccccc21 (configuration not stated),"inconclusive: 25.9 µM [cytotoxic, partial curve, poor fit]"
6,COc1cccc(-c2nnc3n2N=C(C(C)(C)C)CS3)c1,active: 20.6 µM
7,COc1ccc(N(C(=O)c2ccco2)C(C(=O)NC2CCCC2)c2ccc(C)cc2)c(OC)c1 (configuration not stated),"inconclusive: 4.61 µM [cytotoxic, full curve]"
8,O=C(NNC(=S)Nc1ccc(F)cc1)C1CC1c1ccc(Cl)cc1 (configuration not stated),inactive
9,CCOc1ccc2oc(C(=O)OCC(=O)NC3CCCC3)c(C)c2c1,inactive
10,COc1ccc(CCn2c(C)nc3ccccc3c2=O)cc1OC,"inconclusive: 0.731 µM [rising, full curve]"
11,Cn1cnnc1SCC(=O)Nc1nc(-c2ccc(F)cc2)cs1,"inconclusive: 20.6 µM [cytotoxic, single point]"
12,Oc1ccc(CNc2ccccc2)c2cccnc12,inactive
13,Cc1cc(C)cc(NC(=O)c2cc(S(=O)(=O)N3CCCC3)ccc2F)c1,inactive
14,Fc1ccc(C(CCCn2nnc(-c3cccnc3)n2)c2ccc(F)cc2)cc1,"inconclusive: 14.6 µM [cytotoxic, partial curve, poor fit]"
15,O=C(COC(=O)c1ccncc1)Nc1cc(S(=O)(=O)N2CCOCC2)ccc1Cl,"inconclusive: 18.4 µM [rising, single point]"
16,Cc1ccc2[nH]c(=O)c(C(c3nnnn3C(C)(C)C)N(Cc3ccco3)CC3CCCO3)cc2c1 (configuration not stated),"inconclusive: 23.1 µM [cytotoxic, single point]"
17,CC(NC(=O)Nc1ccccc1F)C(C)(C)C (configuration not stated),"inconclusive: 18.4 µM [rising, partial curve, poor fit]"
18,NNc1nc(-c2ccccc2)nc2sc3c(c12)CCCC3,"inconclusive: 29.1 µM [cytotoxic, single point]"
19,O=C(NCCc1ccccc1)c1cnc2sc(N3CCCCC3)nn2c1=O,"inconclusive: 29.1 µM [rising, single point]"
20,CCC1Oc2ccccc2N(CC(=O)NCCc2ccc(OC)c(OC)c2)C1=O (configuration not stated),"inconclusive: 23.1 µM [cytotoxic, partial curve, poor fit]"
21,CCCCCc1nnc(NS(C)(=O)=O)s1,inactive
22,Cc1ccn2c(NC3CCCCC3)c(-c3cccc(SC4CCCCC4)c3)nc2c1,"inconclusive: 16.4 µM [cytotoxic, partial curve] and inconclusive: 29.1 µM [cytotoxic, single point]"
23,CCOc1ccc(N/C=C/C(=O)c2ccc(OC)cc2)cc1,"inconclusive: 16.4 µM [rising, single point]"

row,Structure (SMILES),Potency
1,COc1ccc(CNC(=O)C(=O)NCC2OCCN2S(=O)(=O)c2ccc(OC)cc2)cc1 (configuration not stated),"inconclusive: 10.3 µM [cytotoxic, partial curve]"
2,O=C(CN1CCOCC1)Nc1ccc(-c2nc3ccccc3[nH]2)cc1,"inconclusive: 29.1 µM [cytotoxic, single point]"
3,COc1cc(C(=O)c2ccc3c(c2)OCO3)cc(OC)c1OC,active: 3.26 µM
4,NS(=O)(=O)c1ccc(NC(=O)COC(=O)CSCc2ccc(F)cc2)cc1,inactive
5,NNc1nc2ccc(Cl)cc2s1,"inconclusive: 29.1 µM [cytotoxic, single point]"
6,COC(=O)Cn1c(=O)c2c(n(Cc3ccccc3)c1=O)N/C(=C/c1ccc(Br)cc1)C2=O,"inconclusive: 18.4 µM [rising, single point]"
7,CC(C)C(=O)Nc1nnc(Sc2ccc(N(C)C)cc2)s1,"inconclusive: 6.51 µM [cytotoxic, partial curve]"
8,CN(C)CCNC(=O)/C(=C/c1ccc(-c2cccc([N+](=O)[O-])c2)o1)NC(=O)c1ccccc1,"inconclusive: 10.3 µM [rising, partial curve]"
9,CCOC(=O)Cc1csc(NC(=O)Nc2ccccc2)n1,"inconclusive: 16.4 µM [cytotoxic, single point]"
10,O=C(NCc1ccccn1)c1cccc(S(=O)(=O)NCc2ccccc2)c1,inactive
11,COc1cc(/C=N\NC(=O)c2ccc(-c3ccccc3)cc2)cc(OC)c1OC(C)=O,inactive
12,CC1(C)CC(=O)C2=C(C1)Nc1ccccc1NC2c1cc(Cl)ccc1O (configuration not stated),"inconclusive: 18.4 µM [cytotoxic, partial curve, poor fit]"
13,CCCNc1c(NS(=O)(=O)c2cccs2)c(=O)oc2ccccc12,"inconclusive: 32.6 µM [cytotoxic, single point]"
14,COc1cc2c(cc1NC(=O)COc1ccc(Cl)cc1)oc1ccccc12,"inconclusive: 10.3 µM [rising, partial curve]"
15,CCCCn1nnnc1C(c1cc2ccccc2o1)N1CCN(c2ncccc2C#N)CC1 (configuration not stated),inactive
16,Cc1ccc(S(=O)(=O)NCc2ccccc2)cc1C(=O)NC(C)c1ccc(S(N)(=O)=O)cc1 (configuration not stated),inactive
17,COc1ccc(NC(=O)N2c3ccc(OC)cc3C(C)=CC2(C)C)cc1,"inconclusive: 0.517 µM [rising, full curve, poor fit]"
18,CCOC(=O)C1=C(C)NC2=C(C(=O)CCC2)C1c1ccc(O)c(OCC)c1 (configuration not stated),"inconclusive: 29.1 µM [cytotoxic, single point]"
19,COc1ccc(OC)c(NC(=O)Nc2ccc(Cl)cc2)c1,"inconclusive: 23.1 µM [cytotoxic, partial curve]"
20,Nc1cccnc1Sc1cccc(Cl)c1,"inconclusive: 29.1 µM [rising, single point]"
21,CCOC(=O)C1CCN(C(=O)c2cccc(S(=O)(=O)N(C)C3CCCCC3)c2)CC1,"inconclusive: 10.3 µM [cytotoxic, partial curve]"
22,Cc1nn(C)c(C)c1/C=N/O,"inconclusive: 29.1 µM [rising, single point]"
23,CCCOc1ccc(N2C(=O)CC(N(CCOC34CC5CC(CC(C5)C3)C4)C(C)=O)C2=O)cc1 (configuration not stated),"inconclusive: 1.46 µM [cytotoxic, full curve]"

row,Structure (SMILES),Potency
1,CCn1c(O)c(/C=N/N=C/c2ccccc2)c2ccc(C3=NNC(=O)CC3)cc21,"inconclusive: 3.26 µM [cytotoxic, full curve]"
2,COC(=O)c1ccc(NC(=O)CSc2ccc(-c3ccccn3)nn2)cc1,"inconclusive: 6.51 µM [cytotoxic, partial curve]"
3,CC(/C=N/Nc1nc(C)cc(C)n1)=C\c1ccc(C(C)C)cc1,inactive
4,CCOc1ccc(CCNC(=O)COC(=O)Cn2cnc3ccccc3c2=O)cc1OCC,"inconclusive: 11.6 µM [rising, partial curve, poor fit]"
5,CC(=O)Nc1ccc(C(=O)Nc2ccc3c(c2)N(C2CCCC2)C(=O)c2ccccc2S3)cc1,"inconclusive: 29.1 µM [cytotoxic, single point]"
6,COc1ccc(CN(C)CC(=O)NC(C)c2ccccc2)cc1OC (configuration not stated),"inconclusive: 29.1 µM [cytotoxic, single point]"
7,N#C/C(=C(/O)c1ccc([N+](=O)[O-])cc1)c1nc2ccccc2[nH]1,inactive
8,Cc1ccccc1CNCc1c(C(=O)O)c(C)n(Cc2ccc(F)cc2Cl)c1C,"inconclusive: 29.1 µM [rising, single point]"
9,CCSc1nccc(-c2nn(-c3ccc(C)cc3)ccc2=O)n1,active: 2.59 µM
10,CCOC(=O)[C@@H]1[C@H]2COc3cc(OC)ccc3[C@H]2N2C(=O)N(c3cccc(C)c3)C(=O)[C@]12C,inactive
11,COc1ccc(CNC(=O)C2CCCN(S(=O)(=O)N3CC(C)CC(C)C3)C2)c(OC)c1 (configuration not stated),"inconclusive: 13 µM [cytotoxic, partial curve, poor fit]"
12,Clc1ccccc1CN1CCc2nc(N3CCN(c4ncccn4)CC3)ncc2C1,active: 18.4 µM
13,Cc1nnc(N2CCC(C(=O)NC(C)C)CC2)c2nn(-c3ccccc3)c(C)c12,inactive
14,COc1ccc(NC(=O)CN(c2ccccc2)S(=O)(=O)c2ccccc2)c(OC)c1,"inconclusive: 4.61 µM [cytotoxic, partial curve]"
15,Cc1cc(C(=O)N(C2CCCCC2)C2CCCCC2)no1,"inconclusive: 20.6 µM [cytotoxic, partial curve]"
16,Cc1ccccc1CN1[C@H]2CCCC[C@@H]2OCCS1(=O)=O,"inconclusive: 18.4 µM [cytotoxic, partial curve, poor fit]"
17,CC1=CC(=O)C(C(C)C)=C/C1=C(\c1cc(C(C)C)c(OP(=O)(O)O)cc1C)c1ccccc1C(=O)O,"inconclusive: 9.2 µM [cytotoxic, partial curve, poor fit]"
18,CCOc1ccccc1Nc1nnc(SC(C)C(=O)Nc2nc(-c3ccccc3)cs2)s1 (configuration not stated),"inconclusive: 3.26 µM [cytotoxic, full curve]"
19,CC1=C(C(=O)OC(C)C)C(c2cn(-c3ccccc3)nc2-c2cccs2)NC(=O)N1 (configuration not stated),"inconclusive: 18.4 µM [cytotoxic, single point]"
20,O=C1NC(c2ccccc2)=C(c2ccccc2)C1=O,inactive
21,CC(=O)N/C(=C\c1ccc(C)o1)C(=O)NCc1ccccc1,inactive
